Assay results taken from PubChem BioAssay AID1347075 (National Center for Advancing Translational Sciences (NCATS), 2019).
Hit rate of the full screen: of about 400,000 compounds, about 5,500 (1.4%) were called active. The inconclusive results got no clear call from the source; some entries with a clear call stand among them for comparison. The call rests on the fitted dose curve; in most records, active means well fitted cell-killing curve with a large enough effect; inconclusive means small, poorly fitted or top-dose-only effect, or effect the other way; inactive means flat fitted curve, though single readings scatter. A potency beside an inconclusive call is a rough fit, not a confirmed value.

Assay: qHTS assay for MDR1-selective chemotherapeutics: Primary screen using the parental adenocarcinoma cell KB-3-1; further: nearly all actives have a fitted effect of over 60% in size
Settings: KB-3-1 viability, CellTiter-Glo ATP luminescence, 72 h; activity change, negative = cytotoxic: at 46.1 µM (top of the series)
Method in brief: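 Viability of parental KB-3-1 cells, measured by CellTiter-Glo luminescence, followed a 72 h incubation at 37 °C with pinned compounds in phenol-red-free DMEM containing 10% FBS.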
On the % scale 0 is the no-effect control and ±100 the full control effect; potency means the concentration at half of the fitted maximal effect.

Row | SMILES | Potency | activity change, negative = cytotoxic
1 | C/C(=C\c1ccccc1)C(=O)N1CCN(Cc2ccc3c(c2)OCO3)CC1 | inconclusive: 29.1 µM [cytotoxic, single point] | 
2 | O=c1cc(N2CCCC2)c(-c2ccccc2)n[nH]1 |  | inactive: 13.4%
3 | COc1ccc(C(=O)N2CCCC(Nc3ccc(C)c(C)c3)C2)cc1F (configuration not stated) | inconclusive: 13 µM [rising, partial curve] | 
4 | CC(=O)n1cc(/C=N/NC(N)=S)c2ccccc21 | inconclusive: 16.4 µM [cytotoxic, single point] | 
5 | CCCCNC(=O)c1nc(C2CCN(S(=O)(=O)c3ccc(C(F)(F)F)cc3)CC2)oc1-c1ccccc1 | inconclusive: 23.1 µM [cytotoxic, single point] | 
6 | CCc1nc(NCCC(C)C)c(C#N)c2c1CCCC2 |  | inactive: -7.93%
7 | NC1=C(Cl)C(=O)c2ccc(S(N)(=O)=O)cc2C1=O | inconclusive: 0.517 µM [cytotoxic, full curve, poor fit] | 
8 | NC(=O)CSc1nc2c(sc3ccccc32)c(=O)n1CCCC(=O)NCC1CCCO1 (configuration not stated) |  | inconclusive: -1.76%
9 | CCSc1nnc(NC(=O)C2CCCN(C(=O)c3ccc(Cl)cc3)C2)s1 (configuration not stated) |  | inactive: -25.7%
10 | Cc1cccc(C)c1OCCCn1c(CCNC(=O)C2CCCCC2)nc2ccccc21 | inconclusive: 20.6 µM [cytotoxic, partial curve, poor fit] | 
11 | COc1ccc(NC(=O)c2ccc(C)cc2Cl)c([N+](=O)[O-])c1 | inconclusive: 29.1 µM [cytotoxic, single point] | 
12 | O=C(O)c1cc(NN=C2CCN(Cc3ccccc3)CC2)ccc1Cl |  | inactive: 12.2%
13 | O=C(CCl)Nc1ccc(S(=O)(=O)NC2=NCCCCC2)cc1 | active: 14.6 µM | 
14 | Cc1ccc(-c2csc3nc4c5ccccc5c(NCCCN(C)C)nn4c(=O)c23)cc1 | inconclusive: 29.1 µM [cytotoxic, single point] | 
15 | CN(Cc1c(C(=O)N/N=C/c2ccccc2)nnn1-c1nonc1N)c1ccccc1 |  | inactive: 2.37%
16 | Cc1csc(NC(=O)NC2(C(F)(F)F)Oc3ccccc3O2)n1 | inconclusive: 23.1 µM [cytotoxic, single point] | 
17 | O=C1/C(=C/c2ccc(O)c([N+](=O)[O-])c2)SC(=S)N1Cc1ccccc1 | inconclusive: 20.6 µM [cytotoxic, single point] | 
18 | O=C(Nc1ccc2c(c1)OCO2)c1cc(C2CCCCN2C(=O)c2ccc3c(c2)CCO3)on1 (configuration not stated) | inconclusive: 29.1 µM [cytotoxic, single point] | 
19 | Cc1cc(-c2ccc(C)c(S(=O)(=O)NCc3cccc(Br)c3)c2)on1 | inconclusive: 29.1 µM [cytotoxic, single point] | 
20 | COc1ccc(N(C)S(=O)(=O)c2cccc(C(=O)Nc3nc4ccccc4[nH]3)c2)cc1 | inconclusive: 29.1 µM [cytotoxic, single point] | 
21 | CC(C)CCNc1nc2c(c(=O)n(Cc3cccc(F)c3)c(=O)n2C)n1C | inconclusive: 29.1 µM [cytotoxic, single point] | 

Some of the entries so far, tab-delimited:
Row	SMILES	Potency	activity change, negative = cytotoxic
13	O=C(CCl)Nc1ccc(S(=O)(=O)NC2=NCCCCC2)cc1	active: 14.6 µM	
14	Cc1ccc(-c2csc3nc4c5ccccc5c(NCCCN(C)C)nn4c(=O)c23)cc1	inconclusive: 29.1 µM [cytotoxic, single point]	
15	CN(Cc1c(C(=O)N/N=C/c2ccccc2)nnn1-c1nonc1N)c1ccccc1		inactive: 2.37%
16	Cc1csc(NC(=O)NC2(C(F)(F)F)Oc3ccccc3O2)n1	inconclusive: 23.1 µM [cytotoxic, single point]	
17	O=C1/C(=C/c2ccc(O)c([N+](=O)[O-])c2)SC(=S)N1Cc1ccccc1	inconclusive: 20.6 µM [cytotoxic, single point]	
18	O=C(Nc1ccc2c(c1)OCO2)c1cc(C2CCCCN2C(=O)c2ccc3c(c2)CCO3)on1 (configuration not stated)	inconclusive: 29.1 µM [cytotoxic, single point]	
19	Cc1cc(-c2ccc(C)c(S(=O)(=O)NCc3cccc(Br)c3)c2)on1	inconclusive: 29.1 µM [cytotoxic, single point]	

Remaining list, next part.

Row | SMILES | Potency | activity change, negative = cytotoxic
22 | Cc1ccccc1NC(=O)Nc1ccccc1C(=O)NCc1ccccc1 | inconclusive: 16.4 µM [rising, partial curve, poor fit] | 
23 | Cc1ccc2onc(CC(=O)N3CCN(c4cc(Cl)ccc4C)CC3)c2c1 | inconclusive: 29.1 µM [cytotoxic, single point] | 
24 | NC1=NC[C@@H](CC2CCCCC2)N1CCc1cc(C(F)(F)F)cc(C(F)(F)F)c1 |  | inactive: 0%
25 | O=C1/C(=C/C=C/c2ccccc2)Oc2c1ccc(O)c2CN1CCN(CCO)CC1 | inconclusive: 29.1 µM [cytotoxic, single point] | 
26 | COc1ccc(OCC(=O)N2CCc3ccccc32)c([N+](=O)[O-])c1 |  | inactive: 1.71%
27 | Fc1ccc(-c2nn(-c3ccccc3Cl)c3c2cnc2ccccc23)cc1 | inconclusive: 29.1 µM [cytotoxic, single point] | 
28 | COC(=O)[C@H]1C[C@H](OC(=O)NCc2ccccc2F)[C@@]2(O)CN(S(=O)(=O)c3ccc(C)cc3)CC2[C@H]1C(=O)OC (some centres not stated) |  | inactive: 7.89%
29 | Cn1c(=O)c([N+](=O)[O-])c(-n2cnc3ccccc32)c2ccccc21 | inconclusive: 18.4 µM [cytotoxic, single point] | 
30 | COc1ccc2c(c1)C(=O)[C@@H](O)[C@H](c1ccc(OC)c(Br)c1)O2 | inconclusive: 23.1 µM [cytotoxic, single point] | 
31 | COc1ccc(CN2CCC2(C)C(=O)Nc2cccc(NS(C)(=O)=O)c2)c2ccccc12 (configuration not stated) | inconclusive: 20.6 µM [cytotoxic, single point] | 
32 | COc1ccc(-n2nc(C(=O)N3CCN(c4cccc(C)c4C)CC3)c3c4ccccc4n(C)c3c2=O)cc1Cl | inconclusive: 29.1 µM [rising, single point] | 
33 | CCCC1NC(=O)c2cccnc2-n2c1nc1ccc(Cl)cc1c2=O (configuration not stated) |  | inactive: 10.3%
34 | CC1(C(=O)NS(=O)(=O)c2ccc(Cl)cc2)CCN1C(=O)C/C=C/c1ccccc1 (configuration not stated) | inconclusive: 29.1 µM [cytotoxic, single point] | 
35 | O=c1c2ccccc2sn1-c1cc(S(=O)(=O)N2CCOCC2)ccc1N1CCOCC1 | inactive | 
36 | COc1cc(C2c3cc4c(cc3OC(N3CCCCC3)C2C)OCO4)cc(OC)c1O (configuration not stated) | inconclusive: 29.1 µM [cytotoxic, single point] | 
37 | CCOC(=O)c1cc2[nH]c3ccccc3c2[n+](-c2ccc([N+](=O)[O-])cc2)c1N | inconclusive: 16.4 µM [cytotoxic, single point] | 
38 | COc1ccc(C(=O)NC(=S)NNC(=O)c2ccc(NC(=O)C(C)C)cc2)cc1 | inconclusive: 18.4 µM [cytotoxic, single point] | 
39 | CC(C)(C)c1nnc(NC(=O)C2CCN(c3ncccn3)CC2)s1 | inconclusive: 0.447 µM [rising, full curve, poor fit] | 
40 | O=C(NCc1cccnc1)C(=O)NCC(c1ccco1)N1CCN(c2ccc(F)cc2)CC1 (configuration not stated) | inconclusive: 20.6 µM [cytotoxic, single point] | 
41 | COc1ccccc1NC(=O)c1oc2ccccc2c1NC(=O)c1cccc(OC)c1OC | active: 11.6 µM | 
42 | O=C(N/C(=C\c1ccccc1)C(=O)N1CCOCC1)c1ccccc1Br |  | inactive: 14.4%
